Record: PubChem BioAssay AID1259405 (NCATS, 2018)
The deposit covers about 50,000 reagents; shown is an unselected part. About 4,000 of all reagents (8%) were called active. 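Mouse siRNA library applied to hamster cells; one well for each siRNA.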 Unmarked entries are inactive. Reagents against one gene are numbered here.

Aim: 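Knock-downs that lift recombinant protein yield in hamster ovary cells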 (primary screen)
Cells: Chinese hamster CHO-K1 ovary cells with stable secreted eGFP expression
Reagent: single siRNA against mouse genes, 0.8 pmol siRNA per well (2 µl of 400 nM stock)
Time to read-out: 3 days
Detection: 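Per-well intracellular GFP measured by laser scanning cytometry, plus viability from ATP luminescence, each relative to plate median of non-targeting control wells, in %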
Scale: GFP, % of control: higher = more GFP per well, higher productivity; viability (ATP), % of control: higher = more viable cells (more ATP)
Hit rule: 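a knock-down is called active if GFP reaches 120% or more of non-targeting control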

The first 7 records, to show the layout:
Gene	reagent	GFP, % of control	viability (ATP), % of control
Or2w3b	1	92.4	56.8
Or2w3b	2	35.3	35.8
Or2w3b	3	49.4	77.8
Akt2	1	68.3	55.2
Angpt4	1	52.2	39.1
Angpt4	2	82.7	83.2
Tifab	1	83.9	103

The listing, repeating the preview:
Gene	reagent	GFP, % of control	viability (ATP), % of control
Or2w3b	1	92.4	56.8
Or2w3b	2	35.3	35.8
Or2w3b	3	49.4	77.8
Akt2	1	68.3	55.2
Angpt4	1	52.2	39.1
Angpt4	2	82.7	83.2
Tifab	1	83.9	103
Tifab	2	69.8	75.7
Tifab	3	112	107
Smim7	1	92.8	79.5
Smim7	2	59.1	67.6
Smim7	3	73.4	69.2
Slc22a3	1	102	76.9
Slc22a3	2	86.2	82.1
Slc22a3	3	109	89.1
Nckap5	1	91.6	95.3
Nckap5	2	70.4	72.2
Nckap5	3	67.4	57.5
Nckap5	4	100	58.9
Nckap5	5	88.9	88.7
Nckap5	6	125 (active)	96.2
Clec4b2	1	38.9	70.6
Clec4b2	2	65.2	61.7
Clec4b2	3	93.5	59.3
Nid2	1	79.9	112
Nid2	2	116	79.4
Abcc1	1	99.5	124
Abcc1	2	70	76.3
Abcc1	3	82.3	66.5
Tmub1	1	145 (active)	87.3
Tmub1	2	70.7	31.7
Tmub1	3	80.5	101
Unk	1	71.4	73.3
Unk	2	86.5	66.1
Unk	3	50.6	103
Zkscan3	1	95.7	95.2
Zkscan3	2	54.3	67.2
Zkscan3	3	65.7	81.2
Arhgap35	1	45.3	43.9
Arhgap35	2	51.2	51.9
Arhgap35	3	86.9	71.7
A430093F15Rik	1	47.8	55.5
A430093F15Rik	2	153 (active)	86.9
A430093F15Rik	3	74.6	51.4
Pja1	1	129 (active)	86.8
Pja1	2	70.1	72.9
Pja1	3	88.7	89.5
Mgst1	1	96.9	77.4
Mgst1	2	178 (active)	116
C230029F24Rik	1	50.8	69.4
C230029F24Rik	2	68.7	60.3
C230029F24Rik	3	102	119
Hmgxb4	1	79	86
Hmgxb4	2	111	76.7
Hmgxb4	3	106	97.5
Or5m3b	1	88.8	73.3
Or5m3b	2	69.5	81.4
Or5m3b	3	52.3	34.5
